{"source": "paper PMC7819943", "about": "“Rice protein-binding microarrays: a tool to detect cis-acting elements near promoter regions in rice”", "note": "This is one part of the list."}
{"biological_target": "T1, OsSMF1 (Oryza sativa, UniProt Q6ZLB0 1-436)", "T1 sequence": "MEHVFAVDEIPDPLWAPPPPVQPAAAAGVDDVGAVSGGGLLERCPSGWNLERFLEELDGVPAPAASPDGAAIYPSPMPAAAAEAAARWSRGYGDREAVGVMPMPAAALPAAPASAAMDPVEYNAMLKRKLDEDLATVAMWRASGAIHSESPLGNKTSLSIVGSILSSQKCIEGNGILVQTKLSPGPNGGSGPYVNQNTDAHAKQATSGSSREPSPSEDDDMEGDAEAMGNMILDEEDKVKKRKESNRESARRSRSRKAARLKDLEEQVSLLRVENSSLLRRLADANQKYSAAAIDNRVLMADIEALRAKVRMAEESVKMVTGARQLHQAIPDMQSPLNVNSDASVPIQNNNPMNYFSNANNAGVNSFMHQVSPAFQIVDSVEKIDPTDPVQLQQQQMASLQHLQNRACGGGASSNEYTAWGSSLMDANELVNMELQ", "assay": "protein-binding microarray (RPBM); PBS, 2% BSA, 51.3 ng/ul salmon testes DNA, 50 uM zinc acetate, 200 nM TF, 25 C, 1 h; high values mean tight binding", "conditions": "protein: recombinant; tags: N-terminal polyhistidine and DsRed monomer fusion (pET32a); chain copies: 2; label: CyDye5-dUTP incorporated in the synthesized complementary strand; 3' TTTTT single-stranded linker to array surface; dsDNA, one strand shown", "summary_of_the_method": "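Binding signal is reported as fluorescence intensity per feature (arbitrary units) from an Axon 4000B scanner. Incubation used 200 nM of each Ni–NTA-purified, N-terminally polyhistidine- and DsRed-fused transcription factor from E. coli BL21-CodonPlus on a double-stranded custom Agilent array for 1 h at 25 °C, with 50 µM zinc acetate in the buffer, followed by washing.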"}
{"sequence": "GCCATAAGTTTCCGTGTCCAACTCATCTTATTTGAAATTTCGGAGTCACCTAGTGCAG", "binding signal": "4730 fluorescence intensity (a.u.)"}
{"sequence": "GTTTTAGCTGTTAGTGAGTTCTGACGTGTGTTGTGTAACTCGGAGTCACCTAGTGCAG", "binding signal": "8230 fluorescence intensity (a.u.)"}
{"sequence": "GGGCTCATGATTGGGGATATGGCGGTGTTGGCGAAGAATGCGGAGTCACCTAGTGCAG", "binding signal": "3990 fluorescence intensity (a.u.)"}
{"sequence": "AGAATTCAATGGTGGTGGTATTGAAGCTGCCATCAACACACGGAGTCACCTAGTGCAG", "binding signal": "3440 fluorescence intensity (a.u.)"}
{"sequence": "GGACTGGGGAAGACGACACGACATGGGCTGGGCTGGGCTGCGGAGTCACCTAGTGCAG", "binding signal": "3520 fluorescence intensity (a.u.)"}
{"sequence": "TGGAGGTTGCCGTCGACGTACCACACGTCGACGGCGTTGGCGGAGTCACCTAGTGCAG", "binding signal": "4830 fluorescence intensity (a.u.)"}
{"sequence": "AACTCTCTCGCACGTGACGTAGCACGTGACAGCTCGCCCACGGAGTCACCTAGTGCAG", "binding signal": "8192 fluorescence intensity (a.u.)"}
{"sequence": "CGAGTCTCGTGACCTCACGTGACGCTTCCGCCTCTAGCTCCGGAGTCACCTAGTGCAG", "binding signal": "3270 fluorescence intensity (a.u.)"}
{"sequence": "CAGACCAGTGTAATTCGGCTCTGCCAGCGTGTCAAAATCACGGAGTCACCTAGTGCAG", "binding signal": "5800 fluorescence intensity (a.u.)"}
{"sequence": "ATGCCCGGCGGCAGCCACGCACAGCGCGCCCCACAGCCGACGGAGTCACCTAGTGCAG", "binding signal": "3920 fluorescence intensity (a.u.)"}
{"sequence": "GGATGCGTGCGTGGCATTTCTGGACTGGATTCTTTGTGATCGGAGTCACCTAGTGCAG", "binding signal": "10400 fluorescence intensity (a.u.)"}
{"sequence": "GAGCGGCATGAAGGGTGATGAGCTGATGATGCTGTCGTGGCGGAGTCACCTAGTGCAG", "binding signal": "3850 fluorescence intensity (a.u.)"}
{"sequence": "TCGCCCGCGTCAGGCCAGGCCACCCGAGCCGCATCGCCCACGGAGTCACCTAGTGCAG", "binding signal": "4360 fluorescence intensity (a.u.)"}
{"sequence": "TGGAAGCAATGCGAGCAGGGCATCCTCGTCAGCTTCTCTCCGGAGTCACCTAGTGCAG", "binding signal": "3460 fluorescence intensity (a.u.)"}
{"sequence": "ACCGACGTTTAATCCCTGAGAGCCAGCCGTTGGCTGTGTACGGAGTCACCTAGTGCAG", "binding signal": "65500 fluorescence intensity (a.u.)"}
{"sequence": "CCCTCCCCTCTGCCCGCGCAAGCCGCAGCAGCAGCATCAGCGGAGTCACCTAGTGCAG", "binding signal": "3430 fluorescence intensity (a.u.)"}
{"sequence": "GTCGATCTAACGTACGCCTTTGCGTGTCGACGCGGCCTTTCGGAGTCACCTAGTGCAG", "binding signal": "5930 fluorescence intensity (a.u.)"}
{"sequence": "GAAAGTCAGAAACGGCTGTACGTGTAACCCGCAGGGGCAACGGAGTCACCTAGTGCAG", "binding signal": "4910 fluorescence intensity (a.u.)"}
{"sequence": "CTGCAAACATACATTAATTGATGCATCCAGAAGAGTTAGACGGAGTCACCTAGTGCAG", "binding signal": "28600 fluorescence intensity (a.u.)"}
{"sequence": "CTCAACTGCTATGCGAAATTTTCCACGTAGCAGTAGTAGCCGGAGTCACCTAGTGCAG", "binding signal": "6050 fluorescence intensity (a.u.)"}
{"sequence": "CACATGAGGAAGGCCCATGTGCGTGACTCATCATCCTTCGCGGAGTCACCTAGTGCAG", "binding signal": "27500 fluorescence intensity (a.u.)"}
{"sequence": "TCAATTTTCCCTGCACCTGCTGGCACGCCATTTCCGTCATCGGAGTCACCTAGTGCAG", "binding signal": "3270 fluorescence intensity (a.u.)"}
{"sequence": "TCCTTATCCTCTGTCCCAAATAATTATACTCGTCTCTATCCGGAGTCACCTAGTGCAG", "binding signal": "3490 fluorescence intensity (a.u.)"}
{"sequence": "CCCGCAGTCACAGTGACGTCACCGTTGGCTGCGTACTCGGCGGAGTCACCTAGTGCAG", "binding signal": "14400 fluorescence intensity (a.u.)"}
{"sequence": "TCGCAAACTCCCAACACATACGTGGCTGAAGCCTCTGAAGCGGAGTCACCTAGTGCAG", "binding signal": "9830 fluorescence intensity (a.u.)"}
{"sequence": "CACAAAACCACATGTATTATGAAGCGTGGCAAATAATCACCGGAGTCACCTAGTGCAG", "binding signal": "4260 fluorescence intensity (a.u.)"}
{"sequence": "GGGCTACCACGTGGACACCACGTCAGCAAATACTGCCAATCGGAGTCACCTAGTGCAG", "binding signal": "16800 fluorescence intensity (a.u.)"}
{"sequence": "AAAGGAGAAGGCAACCTGCCTTGACTGTTGCTCCGCTGCCCGGAGTCACCTAGTGCAG", "binding signal": "22400 fluorescence intensity (a.u.)"}
{"sequence": "ATTCCTCTCACTGCGTCATGGCTTGGCGTCTCTCCTTCCTCGGAGTCACCTAGTGCAG", "binding signal": "6610 fluorescence intensity (a.u.)"}
{"sequence": "CATGCTCATGAGGACCTGGAATCCTGATGACGTTGTACAGCGGAGTCACCTAGTGCAG", "binding signal": "6550 fluorescence intensity (a.u.)"}
{"sequence": "GTCTGCCACGGGTTCCTCGTCTCTTCCTCTCCATTTCTACCGGAGTCACCTAGTGCAG", "binding signal": "3640 fluorescence intensity (a.u.)"}
{"sequence": "CCACCCCACCCCACGCTCCCCTCCTCCGCGGGCTTGGCATCGGAGTCACCTAGTGCAG", "binding signal": "3150 fluorescence intensity (a.u.)"}
{"sequence": "AATTCCATCCTGCCCAACTATTCACAACGTGTGTGCGTGGCGGAGTCACCTAGTGCAG", "binding signal": "3540 fluorescence intensity (a.u.)"}
{"sequence": "AAATAATTGAGGTCAGCGTCACGTATAGCAGCGGTAGCTTCGGAGTCACCTAGTGCAG", "binding signal": "4170 fluorescence intensity (a.u.)"}
{"sequence": "GGTCAATGAACGCTGCACATAAACAACAATAAATGGGTCGCGGAGTCACCTAGTGCAG", "binding signal": "29400 fluorescence intensity (a.u.)"}
{"sequence": "ATCCTAGCTACGTCACTGCCTACTTGACAAAGTTACGGTACGGAGTCACCTAGTGCAG", "binding signal": "10300 fluorescence intensity (a.u.)"}
{"sequence": "CGTATGTATCGATTGTCAATTTGGAAATGCTGCTTTGTTGCGGAGTCACCTAGTGCAG", "binding signal": "3380 fluorescence intensity (a.u.)"}
{"sequence": "CTGGGCGGCTTCTGGGGCGAACCACGTCGGATTTACTGTACGGAGTCACCTAGTGCAG", "binding signal": "7570 fluorescence intensity (a.u.)"}
{"sequence": "ATTCCTCCATGAACGTAGCCCACCATACACCACCCCTCTCCGGAGTCACCTAGTGCAG", "binding signal": "4620 fluorescence intensity (a.u.)"}
{"sequence": "TAGGGACCAGGATGACACAACAGTACAAGTTTAGGGACCGCGGAGTCACCTAGTGCAG", "binding signal": "3350 fluorescence intensity (a.u.)"}
{"sequence": "CTCTCTCTCCCTCTCCTCTCGGGCAAGCTAGCCGGCGGGTCGGAGTCACCTAGTGCAG", "binding signal": "3170 fluorescence intensity (a.u.)"}
{"sequence": "GCAAAGTAACCACTACGTGGTGTTTGCTGAGGAAGTTTTCCGGAGTCACCTAGTGCAG", "binding signal": "3760 fluorescence intensity (a.u.)"}
